For at least one compound, name, drawing or mass did not settle the structure.
System: SKOV3-TR ovarian cancer cells
Experiment: crystal violet cell viability in paclitaxel-resistant cells
Assay type: cell-based
Settings: wortmannin at different concentrations in combination with paclitaxel (FIG. 28)
Description: SKOV3-TR cell line was offered from Sood AK in MD-Anderson Cancer Center (USA) and then used in the present experiments.
Paclitaxel resistance of each of SKOV3 and SKOV3-TR was determined by measuring the cell viability through crystal violet colorimetric assay. This experiment was implemented three times and a difference in results thereof was estimated by student's t-test.
According to the same procedures as described in the previous examples, each cell line was divided and cultured by 2D monolayer culture and 3D sphere culture, respectively. Then, a change due to administration of BGJ398 alone or in combination with paclitaxel was analyzed through morphological analysis and crystal violet staining assay.

COC[C@H]1OC(=O)c2coc3c2[C@@]1(C)C1=C(C3=O)[C@@H]2CCC(=O)[C@@]2(C)C[C@H]1OC(C)=O [wortmannin, reference compound]
anticancer effects of paclitaxel: more or less improved in a concentration-dependent manner

— patent US11779582B2, “Composition for preventing or treating metastatic ovarian cancer, endometrial cancer or breast cancer” (LEMONEX INC., priority 2017, dated 2023)
